Data from the supplement of paper PMC10849652.
The list shows a part of the results.

By UniProt entry, the sequences of proteins in these tests, tags left out. Where a name states a change or a piece, a line headed by the entry shows the natural chain unless it says otherwise.
UniProt P12277: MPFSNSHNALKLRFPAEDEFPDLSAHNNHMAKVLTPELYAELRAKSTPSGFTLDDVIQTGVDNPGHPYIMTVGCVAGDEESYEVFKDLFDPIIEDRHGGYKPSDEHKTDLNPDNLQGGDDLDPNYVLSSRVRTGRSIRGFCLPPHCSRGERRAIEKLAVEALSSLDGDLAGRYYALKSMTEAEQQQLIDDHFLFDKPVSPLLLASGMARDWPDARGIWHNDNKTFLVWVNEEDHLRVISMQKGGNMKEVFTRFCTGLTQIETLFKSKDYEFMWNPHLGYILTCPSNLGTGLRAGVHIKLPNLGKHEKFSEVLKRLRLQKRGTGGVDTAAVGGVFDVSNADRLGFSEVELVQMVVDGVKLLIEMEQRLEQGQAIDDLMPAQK
UniProt Q96FZ7: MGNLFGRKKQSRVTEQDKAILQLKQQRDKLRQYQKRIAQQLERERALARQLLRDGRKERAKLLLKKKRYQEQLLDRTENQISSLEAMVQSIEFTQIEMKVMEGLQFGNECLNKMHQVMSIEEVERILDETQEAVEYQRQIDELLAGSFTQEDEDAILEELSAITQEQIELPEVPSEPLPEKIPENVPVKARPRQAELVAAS
UniProt Q9H5X1: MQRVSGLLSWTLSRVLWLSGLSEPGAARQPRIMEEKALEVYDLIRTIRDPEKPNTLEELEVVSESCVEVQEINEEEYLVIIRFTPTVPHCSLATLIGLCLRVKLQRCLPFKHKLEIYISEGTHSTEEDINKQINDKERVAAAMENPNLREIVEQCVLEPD
UniProt O76071: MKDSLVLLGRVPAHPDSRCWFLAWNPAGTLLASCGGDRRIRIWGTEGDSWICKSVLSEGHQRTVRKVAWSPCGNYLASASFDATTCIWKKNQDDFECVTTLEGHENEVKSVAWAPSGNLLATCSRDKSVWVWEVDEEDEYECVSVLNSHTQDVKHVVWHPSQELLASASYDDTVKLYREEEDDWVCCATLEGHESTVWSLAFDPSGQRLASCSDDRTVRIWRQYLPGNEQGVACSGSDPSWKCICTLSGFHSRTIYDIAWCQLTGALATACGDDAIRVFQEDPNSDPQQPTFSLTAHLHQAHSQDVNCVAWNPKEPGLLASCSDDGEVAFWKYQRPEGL
UniProt O96005: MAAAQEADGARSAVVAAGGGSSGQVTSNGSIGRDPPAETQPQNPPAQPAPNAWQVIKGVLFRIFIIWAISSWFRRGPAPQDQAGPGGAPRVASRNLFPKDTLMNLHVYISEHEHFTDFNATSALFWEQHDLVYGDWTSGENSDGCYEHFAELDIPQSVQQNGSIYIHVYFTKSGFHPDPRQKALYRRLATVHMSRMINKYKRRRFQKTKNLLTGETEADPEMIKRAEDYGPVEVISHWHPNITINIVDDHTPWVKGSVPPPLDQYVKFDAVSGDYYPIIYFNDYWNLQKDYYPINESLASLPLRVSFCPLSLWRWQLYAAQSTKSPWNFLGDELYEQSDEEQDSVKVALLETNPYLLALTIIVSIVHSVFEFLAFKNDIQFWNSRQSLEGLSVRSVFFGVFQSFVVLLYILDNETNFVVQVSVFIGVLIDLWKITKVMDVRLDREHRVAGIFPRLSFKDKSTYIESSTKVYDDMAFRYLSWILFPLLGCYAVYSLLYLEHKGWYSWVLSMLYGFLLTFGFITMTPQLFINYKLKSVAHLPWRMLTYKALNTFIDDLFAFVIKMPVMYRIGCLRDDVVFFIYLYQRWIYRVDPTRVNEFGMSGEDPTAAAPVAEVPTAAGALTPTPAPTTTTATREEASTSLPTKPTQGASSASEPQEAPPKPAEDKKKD
UniProt P54105: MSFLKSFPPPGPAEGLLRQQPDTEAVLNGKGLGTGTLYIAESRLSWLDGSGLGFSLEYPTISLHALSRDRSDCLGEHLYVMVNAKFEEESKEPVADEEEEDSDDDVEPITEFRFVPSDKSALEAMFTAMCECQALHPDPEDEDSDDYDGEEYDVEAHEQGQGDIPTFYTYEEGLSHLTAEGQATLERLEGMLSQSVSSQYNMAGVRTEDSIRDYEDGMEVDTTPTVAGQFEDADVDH
UniProt A5YKK6, whole entry, looked up: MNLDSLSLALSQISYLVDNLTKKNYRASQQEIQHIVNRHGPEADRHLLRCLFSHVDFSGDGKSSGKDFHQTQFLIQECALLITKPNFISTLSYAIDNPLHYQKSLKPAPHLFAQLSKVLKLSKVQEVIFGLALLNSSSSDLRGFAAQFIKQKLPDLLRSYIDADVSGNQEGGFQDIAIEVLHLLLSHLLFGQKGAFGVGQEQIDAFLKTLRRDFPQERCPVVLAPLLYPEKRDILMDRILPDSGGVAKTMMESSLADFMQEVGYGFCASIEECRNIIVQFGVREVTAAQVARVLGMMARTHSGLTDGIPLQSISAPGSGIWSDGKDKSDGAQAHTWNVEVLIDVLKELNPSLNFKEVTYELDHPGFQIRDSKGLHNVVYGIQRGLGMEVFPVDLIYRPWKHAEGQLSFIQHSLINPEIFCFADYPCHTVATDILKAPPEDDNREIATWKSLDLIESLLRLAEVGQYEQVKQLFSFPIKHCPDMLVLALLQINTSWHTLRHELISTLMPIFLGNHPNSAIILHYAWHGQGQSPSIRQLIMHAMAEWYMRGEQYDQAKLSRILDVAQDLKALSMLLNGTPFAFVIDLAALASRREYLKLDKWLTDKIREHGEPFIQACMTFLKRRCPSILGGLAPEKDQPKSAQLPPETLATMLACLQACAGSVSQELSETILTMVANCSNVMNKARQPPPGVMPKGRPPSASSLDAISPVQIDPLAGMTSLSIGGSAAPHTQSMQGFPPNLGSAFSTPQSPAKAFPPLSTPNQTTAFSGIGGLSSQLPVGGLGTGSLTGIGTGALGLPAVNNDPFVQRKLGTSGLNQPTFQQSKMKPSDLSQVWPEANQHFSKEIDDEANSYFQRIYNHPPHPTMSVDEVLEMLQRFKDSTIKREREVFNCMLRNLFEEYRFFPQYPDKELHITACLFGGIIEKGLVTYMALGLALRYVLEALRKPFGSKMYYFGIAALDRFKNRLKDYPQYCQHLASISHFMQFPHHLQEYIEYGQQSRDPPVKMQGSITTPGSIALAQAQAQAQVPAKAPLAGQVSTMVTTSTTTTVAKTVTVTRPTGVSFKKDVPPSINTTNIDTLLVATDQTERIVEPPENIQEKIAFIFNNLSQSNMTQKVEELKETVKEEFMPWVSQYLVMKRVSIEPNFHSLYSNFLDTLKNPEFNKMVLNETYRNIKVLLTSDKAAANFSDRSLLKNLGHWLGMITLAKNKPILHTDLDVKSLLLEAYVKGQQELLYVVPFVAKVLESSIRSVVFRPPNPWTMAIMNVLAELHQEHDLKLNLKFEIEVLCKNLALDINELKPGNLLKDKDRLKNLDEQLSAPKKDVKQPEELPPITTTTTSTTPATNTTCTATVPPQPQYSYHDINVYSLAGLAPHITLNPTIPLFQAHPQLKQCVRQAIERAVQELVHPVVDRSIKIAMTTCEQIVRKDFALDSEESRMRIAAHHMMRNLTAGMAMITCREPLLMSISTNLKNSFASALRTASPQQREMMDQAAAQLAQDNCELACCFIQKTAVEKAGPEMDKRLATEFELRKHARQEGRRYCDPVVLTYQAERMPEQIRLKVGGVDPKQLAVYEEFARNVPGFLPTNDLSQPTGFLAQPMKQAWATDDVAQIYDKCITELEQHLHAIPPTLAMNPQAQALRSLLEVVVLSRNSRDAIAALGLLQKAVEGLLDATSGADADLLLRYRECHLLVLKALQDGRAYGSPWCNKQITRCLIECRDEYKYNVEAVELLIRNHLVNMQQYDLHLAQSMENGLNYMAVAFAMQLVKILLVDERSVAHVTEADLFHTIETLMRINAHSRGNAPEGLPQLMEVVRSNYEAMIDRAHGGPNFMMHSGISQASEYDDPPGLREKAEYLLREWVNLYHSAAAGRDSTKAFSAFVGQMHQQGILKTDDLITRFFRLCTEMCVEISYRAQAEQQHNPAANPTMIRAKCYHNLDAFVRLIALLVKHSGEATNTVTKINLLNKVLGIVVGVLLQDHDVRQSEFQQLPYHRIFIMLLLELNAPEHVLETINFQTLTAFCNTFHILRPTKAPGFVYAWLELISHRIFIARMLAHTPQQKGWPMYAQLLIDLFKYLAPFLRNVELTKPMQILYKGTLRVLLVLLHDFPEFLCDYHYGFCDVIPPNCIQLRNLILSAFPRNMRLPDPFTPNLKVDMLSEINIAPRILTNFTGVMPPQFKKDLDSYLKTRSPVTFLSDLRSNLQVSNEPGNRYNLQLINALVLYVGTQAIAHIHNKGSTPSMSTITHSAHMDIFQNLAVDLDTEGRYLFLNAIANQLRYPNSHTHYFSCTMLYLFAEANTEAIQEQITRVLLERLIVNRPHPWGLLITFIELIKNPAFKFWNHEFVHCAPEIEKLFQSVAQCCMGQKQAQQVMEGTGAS
UniProt Q99653: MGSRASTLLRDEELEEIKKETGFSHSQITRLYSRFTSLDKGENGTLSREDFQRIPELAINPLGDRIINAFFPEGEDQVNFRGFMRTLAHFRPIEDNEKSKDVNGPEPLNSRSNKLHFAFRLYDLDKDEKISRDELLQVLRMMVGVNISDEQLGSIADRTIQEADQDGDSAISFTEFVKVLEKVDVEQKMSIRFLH
UniProt Q7Z7K0: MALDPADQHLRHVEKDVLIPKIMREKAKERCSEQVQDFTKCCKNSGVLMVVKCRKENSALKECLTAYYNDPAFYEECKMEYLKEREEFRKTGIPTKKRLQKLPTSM
UniProt Q14011: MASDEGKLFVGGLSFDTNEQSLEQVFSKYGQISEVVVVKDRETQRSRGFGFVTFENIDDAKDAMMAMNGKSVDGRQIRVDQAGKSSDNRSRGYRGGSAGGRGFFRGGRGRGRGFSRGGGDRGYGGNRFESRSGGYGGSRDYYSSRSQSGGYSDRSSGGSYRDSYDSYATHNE
UniProt Q9NRG0: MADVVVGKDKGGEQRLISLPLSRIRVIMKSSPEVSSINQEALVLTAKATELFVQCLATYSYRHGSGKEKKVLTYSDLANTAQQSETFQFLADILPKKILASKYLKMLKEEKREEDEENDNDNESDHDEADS
UniProt Q8N3C7: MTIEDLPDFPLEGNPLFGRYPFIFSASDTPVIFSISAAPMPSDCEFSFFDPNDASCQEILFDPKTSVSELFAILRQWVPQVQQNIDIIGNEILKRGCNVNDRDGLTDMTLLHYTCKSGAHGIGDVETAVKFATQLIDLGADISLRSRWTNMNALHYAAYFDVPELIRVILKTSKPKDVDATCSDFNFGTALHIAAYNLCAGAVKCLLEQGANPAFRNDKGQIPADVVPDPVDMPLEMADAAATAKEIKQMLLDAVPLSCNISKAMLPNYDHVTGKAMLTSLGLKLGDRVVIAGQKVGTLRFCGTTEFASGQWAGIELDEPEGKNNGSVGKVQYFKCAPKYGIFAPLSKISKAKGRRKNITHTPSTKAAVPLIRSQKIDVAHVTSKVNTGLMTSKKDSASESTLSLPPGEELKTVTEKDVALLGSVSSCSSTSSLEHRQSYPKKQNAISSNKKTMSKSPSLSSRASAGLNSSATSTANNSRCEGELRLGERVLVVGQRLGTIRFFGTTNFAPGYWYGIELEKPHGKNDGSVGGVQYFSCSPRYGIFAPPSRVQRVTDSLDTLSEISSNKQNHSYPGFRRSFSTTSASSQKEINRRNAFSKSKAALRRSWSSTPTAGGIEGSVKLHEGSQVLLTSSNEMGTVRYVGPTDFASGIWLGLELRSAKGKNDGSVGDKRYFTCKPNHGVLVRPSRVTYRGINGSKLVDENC
UniProt Q9H9A5, whole entry, looked up: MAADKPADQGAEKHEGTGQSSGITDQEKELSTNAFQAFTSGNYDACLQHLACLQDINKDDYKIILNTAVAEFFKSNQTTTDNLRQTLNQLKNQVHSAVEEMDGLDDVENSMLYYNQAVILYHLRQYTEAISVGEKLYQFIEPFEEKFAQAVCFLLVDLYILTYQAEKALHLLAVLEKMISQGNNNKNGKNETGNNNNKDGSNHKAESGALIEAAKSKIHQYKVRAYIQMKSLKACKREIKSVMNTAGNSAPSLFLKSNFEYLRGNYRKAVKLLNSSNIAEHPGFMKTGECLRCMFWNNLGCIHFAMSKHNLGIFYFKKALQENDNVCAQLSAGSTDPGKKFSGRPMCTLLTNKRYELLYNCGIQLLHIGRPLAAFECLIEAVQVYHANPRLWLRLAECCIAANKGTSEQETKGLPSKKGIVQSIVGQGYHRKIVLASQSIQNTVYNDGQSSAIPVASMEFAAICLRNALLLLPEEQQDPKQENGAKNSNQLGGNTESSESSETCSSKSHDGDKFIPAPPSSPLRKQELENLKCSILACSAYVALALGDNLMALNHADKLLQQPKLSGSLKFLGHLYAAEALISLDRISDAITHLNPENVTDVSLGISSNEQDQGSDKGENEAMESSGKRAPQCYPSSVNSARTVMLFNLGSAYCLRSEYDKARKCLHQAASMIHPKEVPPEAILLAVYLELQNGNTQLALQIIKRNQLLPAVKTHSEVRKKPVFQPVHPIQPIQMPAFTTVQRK

Tests used:
Assay in all cases: log2 fold change, soluble protein after heating vs DMSO (PISA); higher = thermal stabilisation; K562 cells, 10 uM, 30 min; active = over 0.2 and 3.5 SD of the protein, either way, in both replicates (recomputed)
[1] = compound: CC1=C(C=C(C=C1)NC(=O)C2=CC(=CC=C2)C(C)(C)C#N)NC3=CC4=C(C=C3)N=CN(C4=O)C
Procedure, shortened: (§1)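 Quantification of soluble protein used TMTpro 16plex LC-MS/MS, with channel sums equalised. Samples were the supernatant after 21,000xg for 90 min of pooled aliquots from K562 cells (2×10^6 cells/mL) treated with 10 μM compound for 30 min, heated for 3 min over 48°C-58°C, and extracted in PBS with 0.5% NP-40 at 4°C. Values, from duplicates, describe thermal stability against control samples on a log2 fold-change scale.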

[2] = compound: CC1=C(C=C(C=C1)NC(=O)C2=CC(=CC=C2)N(C)C)NC(=O)C3=CC=C(C=C3)O
Procedure, shortened: as §1

[3] = compound: CC1=CC=C(C=C1)SC2=C3C=C(SC3=CN=C2)C(=O)N
Procedure, shortened: as §1

[4] = compound: CC1=NC(=CC=C1)C2=C(N=C(N2)C(C)(C)C)C3=CC4=NC=CN=C4C=C3
Procedure, shortened: as §1

Nexturastat A = compound: CCCCN(Cc1ccc(C(=O)NO)cc1)C(=O)Nc1ccccc1 [Nexturastat A]
Procedure, shortened: as §1

vemurafenib = compound: CCCS(=O)(=O)Nc1ccc(F)c(C(=O)c2c[nH]c3ncc(-c4ccc(Cl)cc4)cc23)c1F [vemurafenib]
Procedure, shortened: as §1

[5] = compound: CCCS(=O)(=O)Nc1ccc(F)c(C(=O)c2c[nH]c3ncc(Cl)cc23)c1F
Procedure, shortened: as §1

[6] = compound: CCCc1cc(C)[nH]c(=O)c1CNC(=O)c1cc(-c2ccnc(N3CCN(C)CC3)c2)cc2c1cnn2C(C)C
Procedure, shortened: as §1

givinostat = compound: CCN(CC)Cc1ccc2cc(COC(=O)Nc3ccc(C(=O)NO)cc3)ccc2c1 [givinostat]
Procedure, shortened: as §1

barasertib = compound: CCN(CCCOc1ccc2c(Nc3cc(CC(=O)Nc4cccc(F)c4)[nH]n3)ncnc2c1)CCOP(=O)(O)O [barasertib]
Procedure, shortened: as §1

[7] = compound: CC[C@@H]1C(=O)N(C)c2cnc(Nc3ccc(C(=O)NC4CCN(C)CC4)cc3OC)nc2N1C1CCCC1
Procedure, shortened: as §1

volasertib = compound: CC[C@@H]1C(=O)N(C)c2cnc(Nc3ccc(C(=O)N[C@H]4CC[C@H](N5CCN(CC6CC6)CC5)CC4)cc3OC)nc2N1C(C)C [volasertib]
Procedure, shortened: as §1

[8] = compound: CC[C@H](C)N1C=C(C2=C(C=C(C=C21)C3=CN=C(C=C3)N4CCNCC4)C(=O)NCC5=C(C=C(NC5=O)C)C)C
Procedure, shortened: as §1

epoxomicin = compound: CC[C@H](C)[C@@H](C(=O)N[C@@H]([C@@H](C)O)C(=O)N[C@@H](CC(C)C)C(=O)[C@]1(CO1)C)NC(=O)[C@H]([C@@H](C)CC)N(C)C(=O)C [epoxomicin]
Procedure, shortened: as §1

[9] = compound: CCn1cc(-c2ccnc3[nH]c(-c4cccc(CN(C)C)c4)cc23)c(-c2ccc(NC(=O)N(C)C)cc2)n1
Procedure, shortened: as §1

[10] = compound: CN(C)CC(=O)Nc1ccc2[nH]c(=O)c3ccccc3c2c1
Procedure, shortened: as §1

[11] = compound: CN1C2=C(C3=C1C(=O)N(N=C3)CC4=CC(=CC=C4)N)SC(=C2)S(=O)C
Procedure, shortened: as §1

[12] = compound: CN1CCC(CNc2ccc3ncc(-c4cccc(OC(F)(F)F)c4)n3n2)CC1
Procedure, shortened: as §1

[13] = compound: CCn1c(C(=O)N(C2CC2)C2CC2)cc2c3c(ncn3C)c(Nc3cc(C)n(C)n3)nc21
Procedure, shortened: as §1

rosiglitazone = compound: CN(CCOC1=CC=C(C=C1)C[C@H]2C(=O)NC(=O)S2)C3=CC=CC=N3 (racemic) [rosiglitazone]
Procedure, shortened: as §1

Measured: log2 fold change

CKB (UniProt P12277)
active: volasertib 0.265
inactive: [1] 0.016 | [2] -0.006 | [3] -0.008 | [4] 0.016 | Nexturastat A -0.032 | vemurafenib 0 | [5] 0.015 | [6] -0.016 | givinostat -0.013 | barasertib -0.002 | [7] 0.002 | [8] 0.008 | epoxomicin 0.044 | [9] -0.108 | [10] 0.009 | [11] -0.111 | [12] -0.056

CHMP6 (UniProt Q96FZ7)
inactive: [1] 0.094 | [2] 0.004 | [3] -0.012 | [4] 0.002 | Nexturastat A -0.034 | vemurafenib 0.015 | [5] 0.022 | [6] 0.072 | givinostat -0.003 | barasertib -0.006 | [7] 0.022 | volasertib -0.018 | [8] 0.037 | epoxomicin 0.004 | [13] 0 | [9] -0.014 | [10] 0.015 | rosiglitazone -0.015 | [11] 0.013 | [12] 0.071

CIAO2A (UniProt Q9H5X1)
inactive: [1] -0.048 | [2] -0.025 | [3] 0.004 | [4] 0.011 | Nexturastat A -0.048 | vemurafenib 0.002 | [5] 0 | [6] -0.006 | givinostat -0.007 | barasertib -0.002 | [7] -0.062 | volasertib 0 | [8] -0.017 | epoxomicin 0.005 | [13] -0.061 | [9] 0.032 | [10] 0.067 | rosiglitazone 0.056 | [11] -0.038 | [12] -0.131

CIAO1 (UniProt O76071)
inactive: [1] 0.016 | [2] 0.007 | [3] -0.067 | [4] 0.065 | Nexturastat A -0.013 | vemurafenib -0.054 | [5] -0.165 | [6] -0.061 | givinostat -0.04 | barasertib 0.01 | [7] -0.112 | volasertib 0.149 | [8] -0.038 | epoxomicin 0.075 | [13] 0.01 | [9] -0.017 | [10] 0.061 | rosiglitazone 0.027 | [11] -0.082 | [12] -0.119

CLPTM1 (UniProt O96005)
inactive: [1] 0.011 | [2] 0.001 | [3] 0.006 | [4] -0.042 | Nexturastat A -0.041 | vemurafenib -0.021 | [5] -0.001 | [6] 0.118 | givinostat 0.018 | barasertib -0.016 | [7] 0.005 | volasertib -0.072 | [8] 0.014 | epoxomicin -0.009 | [13] 0.004 | [9] 0.018 | [10] 0.001 | rosiglitazone 0.009 | [11] 0.028 | [12] 0.044

CLPB isoform 2 (UniProt Q9H078)
inactive: [1] -0.009 | [2] -0.015 | [3] 0.019 | [4] -0.005 | Nexturastat A -0.018 | vemurafenib 0.053 | [5] 0.035 | [6] -0.031 | givinostat 0.031 | barasertib 0.004 | [7] -0.084 | volasertib -0.006 | [8] 0.006 | epoxomicin 0.019 | [13] 0 | [9] 0.018 | [10] 0.042 | rosiglitazone 0.057 | [11] -0.087 | [12] -0.095

CLCN6 isoform 5 (UniProt P51797)
inactive: [1] -0.085 | [2] 0.015 | [3] 0.029 | [4] -0.013 | Nexturastat A 0.198 | vemurafenib 0.076 | [5] 0.007 | [6] 0.053 | givinostat 0.109 | barasertib 0.099 | [7] -0.069 | volasertib -0.076 | [8] 0.007 | epoxomicin 0.058 | [13] 0.053 | [9] -0.136 | [10] -0.079 | rosiglitazone 0.034 | [11] -0.043 | [12] -0.344

CLNS1A (UniProt P54105)
inactive: [1] -0.047 | [2] 0.014 | [3] -0.009 | [4] 0.001 | Nexturastat A 0.001 | vemurafenib 0.005 | [5] 0.021 | [6] 0.019 | givinostat -0.008 | barasertib 0.005 | [7] -0.077 | volasertib -0.079 | [8] 0.01 | epoxomicin 0.038 | [13] 0.036 | [9] -0.017 | [10] -0.035 | rosiglitazone -0.024 | [11] -0.042 | [12] 0.023

CNOT1 (UniProt A5YKK6)
active: volasertib -0.312
inactive: [1] 0.016 | [2] -0.007 | [3] -0.027 | [4] 0.014 | Nexturastat A 0.062 | vemurafenib 0.044 | [5] 0.046 | [6] 0.013 | givinostat 0.044 | barasertib 0.044 | [7] -0.051 | [8] 0.056 | epoxomicin -0.028 | [9] 0.028 | [10] 0.061 | [11] 0.011 | [12] -0.082

CHP1 (UniProt Q99653)
inactive: [1] -0.048 | [2] -0.016 | [3] -0.112 | [4] 0.021 | Nexturastat A 0.016 | vemurafenib 0.141 | [5] -0.042 | [6] 0.008 | givinostat -0.035 | barasertib 0.009 | [7] -0.069 | volasertib -0.036 | [8] 0.033 | epoxomicin 0.061 | [9] -0.007 | [10] 0.063 | [11] 0.034 | [12] -0.028

Reprinted from the listing (two entries):
CLNS1A (UniProt P54105)
inactive: [1] -0.047 | [2] 0.014 | [3] -0.009 | [4] 0.001 | Nexturastat A 0.001 | vemurafenib 0.005 | [5] 0.021 | [6] 0.019 | givinostat -0.008 | barasertib 0.005 | [7] -0.077 | volasertib -0.079 | [8] 0.01 | epoxomicin 0.038 | [13] 0.036 | [9] -0.017 | [10] -0.035 | rosiglitazone -0.024 | [11] -0.042 | [12] 0.023

CNOT1 (UniProt A5YKK6)
active: volasertib -0.312
inactive: [1] 0.016 | [2] -0.007 | [3] -0.027 | [4] 0.014 | Nexturastat A 0.062 | vemurafenib 0.044 | [5] 0.046 | [6] 0.013 | givinostat 0.044 | barasertib 0.044 | [7] -0.051 | [8] 0.056 | epoxomicin -0.028 | [9] 0.028 | [10] 0.061 | [11] 0.011 | [12] -0.082

(continued)

CMC1 (UniProt Q7Z7K0)
inactive: [1] -0.021 | [2] 0.018 | [3] -0.118 | [4] 0.052 | Nexturastat A -0.041 | vemurafenib -0.018 | [5] -0.174 | [6] 0.051 | givinostat -0.046 | barasertib 0.031 | [7] -0.033 | volasertib 0.059 | [8] -0.034 | epoxomicin 0.028 | [13] -0.04 | [9] 0.031 | [10] -0.15 | rosiglitazone -0.039 | [11] 0.025 | [12] 0

CIRBP isoform 2 (UniProt Q14011)
inactive: [1] 0.042 | [2] -0.008 | [3] -0.052 | [4] -0.045 | Nexturastat A 0.162 | vemurafenib 0.016 | [5] -0.047 | [6] 0.044 | givinostat -0.065 | barasertib -0.096 | [7] 0.152 | volasertib 0.196 | [8] 0.012 | epoxomicin -0.111 | [13] 0.03 | [9] 0.198 | [10] -0.031 | rosiglitazone -0.093 | [11] 0.1 | [12] 0.254

CHRAC1 (UniProt Q9NRG0)
inactive: [1] 0.062 | [2] 0.002 | [3] 0.103 | [4] 0.122 | Nexturastat A -0.251 | vemurafenib 0.113 | [5] 0.124 | [6] -0.007 | givinostat -0.062 | barasertib 0.013 | [7] 0.015 | volasertib -0.061 | [8] -0.006 | epoxomicin -0.032 | [13] 0.003 | [9] -0.145 | [10] 0.032 | rosiglitazone 0.121 | [11] -0.103 | [12] 0.063

CLIP4 (UniProt Q8N3C7)
inactive: [1] -0.044 | [2] 0.013 | [3] -0.191 | [4] 0.059 | Nexturastat A -0.013 | vemurafenib -0.059 | [5] -0.148 | [6] -0.04 | givinostat -0.037 | barasertib 0.02 | [7] 0.044 | volasertib 0.06 | [8] -0.035 | epoxomicin 0.003 | [13] 0.023 | [9] -0.031 | [10] 0.046 | rosiglitazone 0.021 | [11] -0.037 | [12] 0.097

CHORDC1 (UniProt Q9UHD1)
inactive: [1] 0.062 | [2] -0.014 | [3] 0.012 | [4] 0.046 | Nexturastat A -0.022 | vemurafenib 0.029 | [5] 0.022 | [6] -0.025 | givinostat -0.019 | barasertib 0.026 | [7] -0.007 | volasertib 0.11 | [8] 0.044 | epoxomicin 0.046 | [13] 0.004 | [9] -0.059 | [10] 0.016 | rosiglitazone 0.017 | [11] -0.107 | [12] 0.024

CNOT10 isoform 6 (UniProt Q9H9A5)
inactive: [1] -0.027 | [2] -0.017 | [3] -0.015 | [4] 0.004 | Nexturastat A 0.148 | vemurafenib 0.009 | [5] 0.016 | [6] 0 | givinostat 0.1 | barasertib -0.009 | [7] -0.012 | volasertib -0.095 | [8] 0.083 | epoxomicin -0.007 | [13] -0.071 | [9] 0.019 | [10] 0.04 | rosiglitazone 0.002 | [11] 0.026 | [12] -0.074
